# Results deposited as PubChem BioAssay AID504808 (Drosophila RNAi Screening Center, 2011)
# Aim: 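Chromatin factors that keep E2F targets switched off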 (primary screen)
# Cell system: Drosophila S2 cells
# Reagents: long dsRNA against Drosophila genes
# Read-out: 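Firefly luciferase driven by E2F sites, normalised to Renilla luciferase on the same minimal promoter, measured by plate reader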
# Scale: E2F firefly: higher = more E2F reporter activity; Renilla normaliser: higher = more normaliser reporter signal
# Call rule: 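Called active if the normalised E2F reporter went up by over 50%; the cutoff is arbitrary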
# The screen tested about 21,000 reagents; below is an unselected part of those with a known target gene and a result. Of all reagents, 18 (0.084%) were called active. 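Raw counts without plate normalisation, one of two replicates; the ratio scores behind the calls were not deposited.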 Unmarked entries are inactive. The record does not give: the amount of reagent, the time to read-out.
Gene,dsRNA,"E2F firefly, rep 1","Renilla normaliser, rep 1"
Csp,DRSC11860,85060,3639
CG12289,DRSC09874,1.18e5,6152
aub,DRSC03486,93214,3694
CG14606,DRSC12550,1.37e5,6330
CG12236,DRSC17830,5240,704
CG12236,DRSC17831,99800,5969
FucTD,DRSC08634,1.08e5,4475
Tmtc3,DRSC04444,80254,3272
CG42296,DRSC00394,1.74e5,6861
Nprl3,DRSC11044,77431,3669
CG9328,DRSC03203,93443,3352
slgA,DRSC20586,1.53e5,5702
LysP,DRSC08676,1.01e5,4316
CG40045,DRSC21232,71995,4195
Obp69a,DRSC11247,1.12e5,5446
dmpd,DRSC06092,2931,243
CG3045,DRSC04331,79466,3673
CG2685,DRSC18463,70067,6076
sr,DRSC13284,83247,2279
sr,DRSC17067,47410,4695
ACXE,DRSC00847,93149,4208

Only “Renilla normaliser, rep 1” (3 entries from above):
CG3045 [DRSC04331] = 3673
CG2685 [DRSC18463] = 6076
sr [DRSC13284] = 2279

Additional results follow:
Gene,dsRNA,"E2F firefly, rep 1","Renilla normaliser, rep 1"
CG31897,DRSC01020,1.15e5,6408
AcCoAS,DRSC11477,1.04e5,3146
AcCoAS,DRSC11603,97422,3859
CG2321,DRSC15439,1805,1060
CG11593,DRSC08206,1.06e5,4385
CG3862,DRSC00631,87986,3523
ldd,DRSC20558,1.45e5,5324
CG5381,DRSC02852,1.63e5,5088
CG15478,DRSC18057,3322,253
l(1)10Bb,DRSC20346,1.08e5,6324
cas,DRSC12373,1.17e5,6440
CG4707,DRSC04483,87793,3818
tbrd-2,DRSC07020,1.24e5,4706
